For this series, the system named is Fos bZIP (I142C, Oregon Green 488) / Jun bZIP heterodimer (AP-1). In words: competition with a labelled probe. Conditions: purified recombinant protein; protein details: Oregon Green 488-maleimide on Fos Cys142.

Construct, isoform or probe ends are uncertain for at least one entry.

With “TCTCCTATGACTCATCC (double strand) [consensus AP-1 oligo]”, the binding result is given as “binds”.
